Data as given in PubChem BioAssay AID1671190 (National Center for Advancing Translational Sciences (NCATS), 2021).
The campaign covered roughly 580,000 compounds. About 6,100 (1.1%) were called active. The shares of active, inactive and inconclusive entries below differ from those in the screen. Calls come from the whole dose curve; as a rule, active = well fitted inhibition curve with a large enough effect; inconclusive = small, poorly fitted or top-dose-only effect, or another doubt; inactive = no such curve, though single readings can be large or run the other way. A potency beside an inconclusive call is a rough fit, not a confirmed value.

Protein sequences, listed by entry. Tags and fused reporters are not part of them. Lines headed by an entry give the natural chain unless they say otherwise; changes in a name come on top.
UniProt P18054: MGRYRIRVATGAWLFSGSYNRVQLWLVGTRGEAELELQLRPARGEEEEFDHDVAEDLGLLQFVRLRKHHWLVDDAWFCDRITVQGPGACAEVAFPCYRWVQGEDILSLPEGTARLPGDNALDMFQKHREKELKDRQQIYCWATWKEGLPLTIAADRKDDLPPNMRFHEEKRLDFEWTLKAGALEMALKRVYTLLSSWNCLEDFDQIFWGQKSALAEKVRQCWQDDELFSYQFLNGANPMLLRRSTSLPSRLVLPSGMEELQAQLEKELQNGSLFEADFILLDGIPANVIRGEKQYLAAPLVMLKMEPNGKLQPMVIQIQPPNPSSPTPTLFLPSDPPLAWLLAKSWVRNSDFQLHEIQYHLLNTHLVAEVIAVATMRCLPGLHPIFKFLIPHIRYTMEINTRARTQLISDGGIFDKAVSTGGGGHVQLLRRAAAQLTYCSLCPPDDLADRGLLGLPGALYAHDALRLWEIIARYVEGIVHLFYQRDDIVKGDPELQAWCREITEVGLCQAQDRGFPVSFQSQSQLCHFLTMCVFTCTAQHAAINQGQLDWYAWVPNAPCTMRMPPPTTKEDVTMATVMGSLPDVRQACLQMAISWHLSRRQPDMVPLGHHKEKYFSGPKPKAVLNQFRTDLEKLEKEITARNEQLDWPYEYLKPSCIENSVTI

These compounds were tested against Polyunsaturated fatty acid lipoxygenase ALOX12 (Homo sapiens) (UniProt P18054) (assay: Primary qHTS assay for inhibitors of human arachidonate 12S-lipoxygenase (ALOX12): Round 2). Conditions: purified 12hLO, xylenol orange hydroperoxide absorbance; series mostly up to 108 µM.
Method in brief: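 Purified human 12hLO (150 nM final) in 25 mM Hepes, 0.01% Triton X-100, pH 7.0 was preincubated 15 min at room temperature with compound. Then 40 uM arachidonic acid was added, 30 min. Hydroperoxide was read by Fe-XO absorbance ratio 573/405 nm.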
Potency is the fitted concentration of half-maximal effect.

Compound	Potency
Cc1ccc(S(=O)(=O)N2CCC(C(=O)NCCN3CCCCCC3)CC2)cc1	inconclusive: 79.4 µM [inhibitor, partial curve, poor fit]
O=C(NCc1ccco1)c1ccc2c(=O)n(-c3ccccc3)c(=S)[nH]c2c1	inactive
C=CCn1c(-c2ccc(OC)c(OC)c2)n[nH]c1=S	inconclusive: 35.5 µM [inhibitor, single point]
CN(Cc1cn[nH]c1-c1ccccc1)CC1CCCN(CCc2ccc(F)cc2)C1 (configuration not stated)	inactive
Cc1cc(C)n(-c2ccc(C(=O)N3CCN(S(=O)(=O)c4ccc(Cl)cc4)CC3)cc2)n1	inconclusive: 70.8 µM [inhibitor, partial curve, poor fit]
Cc1ccc(S(=O)(=O)NC(=O)c2ccc(Br)o2)cc1	inconclusive: 100 µM [inhibitor, single point]
CC(=O)Nc1ccc(CN2CCC3(CC2)CNc2ccccc2[S+](=O)([O-])N3)cc1	inconclusive: 79.4 µM [inhibitor, single point]
COC(=O)C1=CN(Cc2ccc(F)cc2)C=C(C(=O)OC)C1c1cc(OC)c(OC)c(OC)c1	inactive
Cc1cccc(N/N=C/c2ccc(Cl)c(Cl)c2)c1	active: 3.98 µM
COCc1nc(NCCc2nc3ccccc3s2)cc(C2CC(N)C2)n1 (configuration not stated)	inconclusive: 14.1 µM [inhibitor, single point]
O=C(Nc1ccc(Oc2ccccc2)cc1)O[C@@H]1CO[C@H]2[C@@H]1OC[C@@H]2NC(=O)c1ccccn1	inactive
COc1ccc(N2CCN(CC(=O)NCc3ccc(Cl)cc3)CC2)cc1	inconclusive: 50.1 µM [inhibitor, partial curve, poor fit]
Cc1ccc([C@@H]2C3COCC=C3C(C#N)=C(N)C2(C#N)C#N)o1 (some centres not stated)	inactive
O=C1NC2=C(CCc3ccccc32)C(c2ccc(Br)cc2)N1 (configuration not stated)	inconclusive: 44.7 µM [inhibitor, partial curve, poor fit]
COC(=O)c1ccc(NC(=O)c2c(NCc3ccc(OC)c(OC)c3)sc3c2CCCC3)cc1	inconclusive: 44.7 µM [inhibitor, partial curve, poor fit]
CCn1nnnc1NCc1ccc(N2CCCC2)cc1	inconclusive: 28.2 µM [inhibitor, single point]
CCCCOc1cccc(C(=O)Nc2ccc(OC)c3ncccc23)c1	inactive
COc1ccc(S(=O)(=O)Nc2cccc3c2O[C@H](CN(C)Cc2ccc(Oc4ccccc4)cc2)[C@@H](C)CN([C@H](C)CO)C3=O)cc1	inconclusive: 56.2 µM [inhibitor, partial curve, poor fit]
COc1ccc(-c2csc(NC(=O)c3c(OC)cccc3OC)n2)cc1	inconclusive: 39.8 µM [inhibitor, partial curve, poor fit]
O=C(CSc1nc2cc([N+](=O)[O-])ccc2n1-c1ccccc1)NCc1ccc2c(c1)OCO2	inactive
CC1=C(C(=O)Nc2ccc(C)cc2C)C(c2cccc3ccccc23)NC(=S)N1 (configuration not stated)	inconclusive: 44.7 µM [inhibitor, partial curve, poor fit]
Nc1cc(=O)[nH]c(SCc2ccccc2)n1	inactive
CC(=O)c1ccc(N2CCN(CC(=O)Nc3ccccc3C(=O)NC3CC3)CC2)c(F)c1	inconclusive: 126 µM [inhibitor, single point]

Exported with each value named: 2 of the compounds above.
O=C(Nc1ccc(Oc2ccccc2)cc1)O[C@@H]1CO[C@H]2[C@@H]1OC[C@@H]2NC(=O)c1ccccn1
  Potency: inactive
COc1ccc(N2CCN(CC(=O)NCc3ccc(Cl)cc3)CC2)cc1
  Potency: inconclusive: 50.1 µM [inhibitor, partial curve, poor fit]

Remaining list, next part.

Compound	Potency
CC1(C(=O)Nc2ccc3nc[nH]c3c2)CCN1C(=O)Cc1ccc(-c2ccccc2)cc1 (configuration not stated)	inactive
COc1ccc(CC(=O)Nc2cccc(-c3ccc4nnc(C)n4n3)c2)cc1OC	inactive
COCCN(CCOC)Cc1cc(=O)oc2cc(OC)c(Cl)cc12	inconclusive: 35.5 µM [inhibitor, partial curve]
O=C(NCc1ccccc1F)C1CCCN1C(=O)Nc1ccccc1 (configuration not stated)	inactive
CCn1cc(CN2CCC3(CCC3NC(=O)COC)CC2)cn1 (configuration not stated)	inactive
CN(c1cccc(NC(=O)CSc2ccc(Cl)cc2)c1)S(C)(=O)=O	inconclusive: 39.8 µM [inhibitor, partial curve, poor fit]
COc1ccc(CCNC(=O)Nc2nc(C(N)C3CCCCC3)cs2)cc1OC (configuration not stated)	inactive
COc1cc(OC)c(OC)cc1CN1CCN(Cc2cc(OC)c(O)c(OC)c2)CC1	inconclusive: 0.355 µM [inhibitor, full curve, poor fit]
Cc1cc(C)c(C)c(OCCN2CC(C)OC(C)C2)c1 (configuration not stated)	inconclusive: 1.58 µM [inhibitor, full curve, poor fit]
CC(=O)OC/C=C(C)/C=C/C=C(C)/C=C/C1=C(C)CCCC1(C)C	inconclusive: 100 µM [inhibitor, single point]
O=C(N/N=C/C=C\c1ccco1)c1cccs1	inconclusive: 50.1 µM [inhibitor, partial curve, poor fit]
Cc1ccc(C(=O)OCC(=O)c2c(N)n(C)c(=O)n(C)c2=O)cc1S(=O)(=O)N1CCOCC1	inactive
COc1ccc(C2(CNC(=O)c3ccccc3)CCCC2)cc1OC	inactive
COCCn1c(C)cc(C2=NNC(=Nc3ccc(F)cc3)SC2)c1C	inconclusive: 17.8 µM [inhibitor, partial curve]
OC(c1ccc2c(c1)OCO2)c1ncc(-c2ccc(Cl)cc2)[nH]1 (configuration not stated)	inconclusive: 44.7 µM [inhibitor, partial curve, poor fit]
C/C(=N/Nc1ccc(F)cc1F)c1cc(Cl)ccc1Cl	inconclusive: 17.8 µM [inhibitor, full curve, poor fit]
C[C@H]1NC(=O)[C@]2(C)[C@@H](c3ccccc3)[C@H]3COc4ccccc4[C@@H]3N2C1=O	inactive
COc1ccc(/C=N/n2c(C)nc3sc(C)c(C)c3c2=O)cc1OC	inconclusive: 112 µM [inhibitor, single point]
O=C(Nc1ccncc1)C1CCN(C(=O)c2ccc3ccccc3n2)CC1	inactive
CCC1CCc2c(sc(NC(=O)C3CC3)c2C#N)C1 (configuration not stated)	inconclusive: 2.51 µM [inhibitor, full curve, poor fit]
C=C(C1=CCN(S(=O)(=O)C(C)(C)C)[C@H]1CCO)c1ccccc1	inconclusive: 44.7 µM [inhibitor, partial curve, poor fit]
O=S(=O)(c1ccc(NC(=S)NN=C2CCCCC2)cc1)N1CCOCC1	inconclusive: 50.1 µM [inhibitor, partial curve, poor fit]
CCn1c(-c2ccc(-c3ccccc3)cc2)c[nH]c1=S	inconclusive: 44.7 µM [inhibitor, single point]

Compound	Potency
C=CCC(CC=C)(C(=O)O)c1ccccc1	inconclusive: 126 µM [inhibitor, partial curve, poor fit]
O=C(CCc1ccccc1)Nc1ccc(Cl)c(C(F)(F)F)c1	inactive
COC(=O)CCCn1cc(CN2CC(N3CCN(C4CCN(C)CC4)CC3)CS2(=O)=O)nn1 (configuration not stated)	inconclusive: 15.8 µM [inhibitor, full curve]
C(C#CCOC/C=C/c1ccccc1)#CCOC/C=C/c1ccccc1	inconclusive: 22.4 µM [inhibitor, full curve, poor fit]
Cc1cc(/C=C2\SC(=S)NC2=O)c(C)n1-c1cccc(O)c1	active: 39.8 µM
CCCCN1C(=O)NC(c2ccccc2OC(F)F)C(C(=O)OCC)=C1C (configuration not stated)	inconclusive: 2.82 µM [inhibitor, full curve, poor fit]
COc1ccc(C)cc1-c1csc(N)c1C#N	inconclusive: 56.2 µM [inhibitor, partial curve, poor fit]
Cc1nc2ccc(S(=O)(=O)NC(CC(C)C)C(=O)O)cc2s1 (configuration not stated)	inconclusive: 44.7 µM [inhibitor, partial curve, poor fit]
Cc1cccc(Nc2c([N+](=O)[O-])c(=O)oc3ccccc23)c1	inconclusive: 112 µM [inhibitor, single point]
COc1ccc(C2CCCN2Cc2cccc(C)c2)cc1 (configuration not stated)	inactive
CCOc1ccccc1C1Nc2ccccc2-c2nnc(SCc3ccccc3)nc2O1 (configuration not stated)	inconclusive: 28.2 µM [inhibitor, single point]
CCOc1cccc2cc(-c3cc(=O)oc4cc(C)ccc34)oc12	inconclusive: 112 µM [inhibitor, partial curve, poor fit]
Cc1cc(C(O)c2ncc(-c3cccc(F)c3)[nH]2)ccc1F (configuration not stated)	inconclusive: 100 µM [inhibitor, single point]
Cc1cc(/C=C/C(=O)c2ccc3ccccc3c2)c(C)s1	inactive
Cc1cc(C)c(S(=O)(=O)N2CCN(C(=O)N3CCOCC3)CC2)c(C)c1	inconclusive: 6.31 µM [inhibitor, full curve, poor fit]
Cc1ccccc1CN1CCCN(c2cccc(C(=O)NCc3ccc4c(c3)OCO4)c2)C1=O	inconclusive: 44.7 µM [inhibitor, full curve, poor fit]
CCN(CC)c1ccc(NC(=O)COC(=O)C2CCN(c3ccc(C(F)(F)F)cn3)CC2)cc1	inconclusive: 50.1 µM [inhibitor, partial curve, poor fit]
Cc1ccc(O)c(C(=O)c2cc(C#N)c(=O)n(-c3ccccc3C(=O)O)c2)c1	inconclusive: 35.5 µM [inhibitor, partial curve, poor fit]
CC(C)NC(=O)CCS(=O)(=O)c1cccc2nonc12	inactive
CCc1ocnc1C(=O)N1CCCC(c2[nH]ncc2-c2ccc(F)cc2)C1 (configuration not stated)	inactive
Cc1nc(S(=O)(=O)Cc2ccc(Cl)cc2)nc2c1CCC2	inconclusive: 89.1 µM [inhibitor, partial curve, poor fit]

Structural class, those above containing a nitro group on carbon
Compound	Potency
O=C(CSc1nc2cc([N+](=O)[O-])ccc2n1-c1ccccc1)NCc1ccc2c(c1)OCO2	inactive
Cc1cccc(Nc2c([N+](=O)[O-])c(=O)oc3ccccc23)c1	inconclusive: 112 µM [inhibitor, single point]
